Consider three molecules from article PMC11749260.

No constants are given. Whether binding was seen depends on the method and setting. In cells and extracts the contact can be indirect. Some binding calls cover weakened binding; strength is not graded here. For part of these data: Where a sequence is shown, tags or fusion partners need not be part of it.

Experiment [1] concerns the target T1, Flag-tagged Sugt1 (suppressor of G2 allele of SKP1 homolog) (UniProt Q9CX34).
T1 sequence: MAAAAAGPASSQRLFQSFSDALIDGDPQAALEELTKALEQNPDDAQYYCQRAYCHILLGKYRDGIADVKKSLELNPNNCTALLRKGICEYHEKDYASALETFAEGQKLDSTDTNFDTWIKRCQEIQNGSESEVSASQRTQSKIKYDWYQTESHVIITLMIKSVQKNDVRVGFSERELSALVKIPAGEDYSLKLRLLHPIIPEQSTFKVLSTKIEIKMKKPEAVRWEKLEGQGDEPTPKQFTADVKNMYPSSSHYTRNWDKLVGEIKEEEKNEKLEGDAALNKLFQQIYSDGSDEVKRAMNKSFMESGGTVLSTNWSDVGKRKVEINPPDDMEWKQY
As to the kind of experiment: co-IP; Flag-Sugt1 overexpressed in C2C12; lysate incubated with anti-Flag magnetic beads at 4°C overnight; Western blotting for Trim21.

The target in experiment [2] is T2, Trim21 (E3 ubiquitin-protein ligase) (mouse (endogenous in C2C12)) (UniProt Q62191).
T2 sequence: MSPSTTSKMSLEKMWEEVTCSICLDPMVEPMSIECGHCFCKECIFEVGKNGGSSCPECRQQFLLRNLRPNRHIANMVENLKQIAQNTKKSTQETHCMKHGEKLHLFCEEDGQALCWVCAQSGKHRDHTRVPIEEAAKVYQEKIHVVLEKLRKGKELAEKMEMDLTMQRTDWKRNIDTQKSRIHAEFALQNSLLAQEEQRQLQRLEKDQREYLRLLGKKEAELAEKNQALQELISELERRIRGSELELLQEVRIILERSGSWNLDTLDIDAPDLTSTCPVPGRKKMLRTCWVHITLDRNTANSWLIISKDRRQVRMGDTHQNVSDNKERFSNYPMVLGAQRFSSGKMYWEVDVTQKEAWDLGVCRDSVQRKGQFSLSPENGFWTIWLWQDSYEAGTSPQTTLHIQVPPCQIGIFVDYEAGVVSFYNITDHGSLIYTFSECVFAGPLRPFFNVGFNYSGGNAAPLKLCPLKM
Kind of experiment: co-IP; IP of endogenous Trim21 from C2C12 myoblast lysate with Trim21 antibody (10 µg, overnight at 4°C) and Dynabeads Protein G; Western blotting of the retrieved proteins.

B1: Trim21 (E3 ubiquitin-protein ligase) (protein, UniProt Q62191 1-470)
chain: MSPSTTSKMSLEKMWEEVTCSICLDPMVEPMSIECGHCFCKECIFEVGKNGGSSCPECRQQFLLRNLRPNRHIANMVENLKQIAQNTKKSTQETHCMKHGEKLHLFCEEDGQALCWVCAQSGKHRDHTRVPIEEAAKVYQEKIHVVLEKLRKGKELAEKMEMDLTMQRTDWKRNIDTQKSRIHAEFALQNSLLAQEEQRQLQRLEKDQREYLRLLGKKEAELAEKNQALQELISELERRIRGSELELLQEVRIILERSGSWNLDTLDIDAPDLTSTCPVPGRKKMLRTCWVHITLDRNTANSWLIISKDRRQVRMGDTHQNVSDNKERFSNYPMVLGAQRFSSGKMYWEVDVTQKEAWDLGVCRDSVQRKGQFSLSPENGFWTIWLWQDSYEAGTSPQTTLHIQVPPCQIGIFVDYEAGVVSFYNITDHGSLIYTFSECVFAGPLRPFFNVGFNYSGGNAAPLKLCPLKM
As for B1, the binding result in experiment [1] is reported as “binds”.

B2: Sugt1 (suppressor of G2 allele of SKP1 homolog), endogenous (protein, UniProt Q9CX34 1-336)
chain: MAAAAAGPASSQRLFQSFSDALIDGDPQAALEELTKALEQNPDDAQYYCQRAYCHILLGKYRDGIADVKKSLELNPNNCTALLRKGICEYHEKDYASALETFAEGQKLDSTDTNFDTWIKRCQEIQNGSESEVSASQRTQSKIKYDWYQTESHVIITLMIKSVQKNDVRVGFSERELSALVKIPAGEDYSLKLRLLHPIIPEQSTFKVLSTKIEIKMKKPEAVRWEKLEGQGDEPTPKQFTADVKNMYPSSSHYTRNWDKLVGEIKEEEKNEKLEGDAALNKLFQQIYSDGSDEVKRAMNKSFMESGGTVLSTNWSDVGKRKVEINPPDDMEWKQY
For B2, in experiment [2], the binding result was “binds”.

B3: p21 (protein, UniProt P39689 1-159)
chain: MSNPGDVRPVPHRSKVCRCLFGPVDSEQLRRDCDALMAGCLQEARERWNFDFVTETPLEGNFVWERVRSLGLPKVYLSPGSRSRDDLGGDKRPSTSSALLQGPAPEDHVALSLSCTLVSERPEDSPGGPGTSQGRKRRQTSLTDFYHSKRRLVFCKRKP
Consider B3, for which, in experiment [2], the binding result is given as “binds”.
